For 2 substances, binding results are on record in PMC1828611.

Protein sequences, listed by entry. Tags and fused reporters are not part of them. Lines headed by an entry give the natural chain unless they say otherwise; changes in a name come on top.
UniProt Q9VCQ7: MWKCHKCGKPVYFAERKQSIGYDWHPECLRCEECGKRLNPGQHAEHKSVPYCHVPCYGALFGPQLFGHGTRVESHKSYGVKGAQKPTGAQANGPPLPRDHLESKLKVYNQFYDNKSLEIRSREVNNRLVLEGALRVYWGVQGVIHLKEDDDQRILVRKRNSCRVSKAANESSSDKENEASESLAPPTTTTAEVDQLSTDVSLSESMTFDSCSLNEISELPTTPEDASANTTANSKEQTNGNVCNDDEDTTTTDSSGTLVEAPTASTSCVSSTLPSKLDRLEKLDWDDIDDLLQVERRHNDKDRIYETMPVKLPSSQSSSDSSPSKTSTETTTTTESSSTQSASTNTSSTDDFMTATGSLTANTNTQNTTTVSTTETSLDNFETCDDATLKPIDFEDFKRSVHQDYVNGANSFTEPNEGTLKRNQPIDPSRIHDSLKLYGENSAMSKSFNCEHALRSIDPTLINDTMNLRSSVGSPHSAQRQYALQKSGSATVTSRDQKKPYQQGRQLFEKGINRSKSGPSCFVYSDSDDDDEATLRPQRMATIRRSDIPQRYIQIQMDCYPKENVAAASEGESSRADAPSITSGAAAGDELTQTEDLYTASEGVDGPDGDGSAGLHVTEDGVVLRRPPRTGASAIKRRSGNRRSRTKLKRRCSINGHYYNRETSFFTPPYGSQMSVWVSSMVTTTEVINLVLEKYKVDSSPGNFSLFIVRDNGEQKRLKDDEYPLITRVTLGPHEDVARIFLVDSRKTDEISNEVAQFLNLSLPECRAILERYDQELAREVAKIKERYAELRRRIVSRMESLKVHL

These are yes or no findings as the source states them, for the method shown. Binding seen in cells or lysates may run through a third protein. For part of these data: Binding calls can cover weak binding; strength is not graded here. For part of these data: Sequences can lack the tags named with a protein.

For assay [1], the target named is T1, Salvador (Sav), endogenous (Drosophila melanogaster (endogenous in Kc cells)) (UniProt Q9VCR6).
T1 sequence: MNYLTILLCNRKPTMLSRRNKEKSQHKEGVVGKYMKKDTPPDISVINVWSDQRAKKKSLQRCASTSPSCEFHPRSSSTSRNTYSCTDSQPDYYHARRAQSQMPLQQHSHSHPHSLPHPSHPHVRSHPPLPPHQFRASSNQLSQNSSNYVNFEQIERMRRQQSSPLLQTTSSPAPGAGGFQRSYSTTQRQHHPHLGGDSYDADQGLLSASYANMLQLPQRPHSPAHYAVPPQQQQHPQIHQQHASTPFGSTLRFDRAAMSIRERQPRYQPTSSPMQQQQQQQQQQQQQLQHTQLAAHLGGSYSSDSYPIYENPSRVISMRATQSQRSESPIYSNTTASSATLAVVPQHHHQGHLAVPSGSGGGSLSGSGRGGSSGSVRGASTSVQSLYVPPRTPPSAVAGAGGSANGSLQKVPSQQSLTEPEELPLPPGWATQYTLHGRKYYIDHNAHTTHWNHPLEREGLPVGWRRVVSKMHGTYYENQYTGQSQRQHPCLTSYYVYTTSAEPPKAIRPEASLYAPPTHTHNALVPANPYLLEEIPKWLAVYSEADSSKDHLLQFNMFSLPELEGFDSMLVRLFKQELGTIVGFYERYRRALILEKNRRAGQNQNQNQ
The assay is described as follows: co-IP; endogenous proteins immunoprecipitated from Kc cell lysates with dRASSF antibodies (or Sav antibodies, Figure S2C); control Myc antibodies; blotted with Hpo66 and dRASSF antibodies.

Assay [2] has as its target T2, Hpo-Myc (Drosophila melanogaster) (UniProt Q8T0S6).
T2 sequence: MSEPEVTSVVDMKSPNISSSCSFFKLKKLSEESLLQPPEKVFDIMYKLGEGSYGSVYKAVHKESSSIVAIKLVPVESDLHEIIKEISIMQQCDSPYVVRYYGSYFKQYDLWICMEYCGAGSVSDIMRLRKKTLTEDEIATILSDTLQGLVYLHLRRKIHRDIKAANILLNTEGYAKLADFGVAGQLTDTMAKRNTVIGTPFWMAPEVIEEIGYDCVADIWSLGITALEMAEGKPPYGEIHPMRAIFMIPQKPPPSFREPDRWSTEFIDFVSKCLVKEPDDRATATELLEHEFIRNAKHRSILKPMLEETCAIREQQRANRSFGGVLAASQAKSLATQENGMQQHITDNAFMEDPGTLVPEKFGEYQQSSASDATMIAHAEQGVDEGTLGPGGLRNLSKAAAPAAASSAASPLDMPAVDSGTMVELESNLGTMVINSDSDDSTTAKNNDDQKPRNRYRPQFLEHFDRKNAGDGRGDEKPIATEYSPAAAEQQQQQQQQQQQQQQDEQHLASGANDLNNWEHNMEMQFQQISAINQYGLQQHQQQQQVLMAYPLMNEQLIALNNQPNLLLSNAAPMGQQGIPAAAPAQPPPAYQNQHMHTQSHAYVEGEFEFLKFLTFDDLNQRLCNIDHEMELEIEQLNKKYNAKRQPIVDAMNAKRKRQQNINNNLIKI
The assay can be described thus: co-IP; Hpo-Myc, Sav-HA and GFP-dRASSF cotransfected in Kc cells; anti-Myc, anti-HA, anti-dRASSF or control (anti-Flag) immunoprecipitates blotted for GFP-dRASSF, Sav-HA, Hpo-Myc and phospho-MST1.

Assay [3] addresses T3, Sav-HA (Drosophila melanogaster) (UniProt Q9VCR6).
T3 sequence: T1 sequence
The description is as above.

Turning to “Drosophila RASSF ortholog (dRASSF), endogenous (from UniProt Q9VCQ7)”, the binding result in assay [1] is “no binding”. Regarding GFP-dRASSF (Drosophila melanogaster), the binding entry in assay [2] is reported as “binds”; in assay [3], “no binding”.
